Measurements reported in publication PMC4170211.
These are yes or no findings as the source states them, for the method shown. Binding seen in cells or lysates may run through a third protein. A result given as binding can be weak or reduced; the word gives no strength. Tags and fused reporters may be left off the sequences shown.

Target: T1, Myc-Nde1 (mouse) (UniProt Q9CZA6)
T1 sequence: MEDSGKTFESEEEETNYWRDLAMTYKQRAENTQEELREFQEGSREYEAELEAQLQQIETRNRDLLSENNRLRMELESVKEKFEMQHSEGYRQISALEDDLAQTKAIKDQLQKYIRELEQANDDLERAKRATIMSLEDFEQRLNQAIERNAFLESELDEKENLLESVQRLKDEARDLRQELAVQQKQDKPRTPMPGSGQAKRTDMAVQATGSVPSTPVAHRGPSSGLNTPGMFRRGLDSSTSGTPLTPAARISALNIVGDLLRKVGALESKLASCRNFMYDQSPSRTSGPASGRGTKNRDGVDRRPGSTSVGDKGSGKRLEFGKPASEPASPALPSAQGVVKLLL
Assay: co-IP; Myc-Nde1 transfected in 293T, immunoprecipitated by anti-myc 9E10 (mouse IgG as control), endogenous partners by immunoblotting; 25 mM HEPES, 150 mM NaCl, 10 mM NaF, 100 uM Na3VO4, 0.5% NP40, 10% glycerol, protease inhibitors, 1 mM ATP

## SMC1, endogenous (human (endogenous in 293T))
  binding: binds
